Laboratory results reported in patent publication US20240018470A1, “METHOD OF MANIPULATING PLURIPOTENCY IN CELLS” (YALE UNIVERSITY, priority 2022, published 2024).
At least one compound was matched to its structure with a doubt left.

Assays:
Xenopus embryos = test: Whole mount in situ hybridization for germ layer and pluripotency markers; assay type: in vivo, Xenopus tropicalis
Excerpt: In order to generate a full-length antisense probe for X. tropicalis kcnh6, kcnh6 cDNA was cloned from stage 45 tadpole whole mRNA using primers […] ID NO:10) and […] ID NO:11) (XM_012952904.1). It was noted that kcnh6 had been misannotated as kcnh2 in the v7.1 model of the X. tropicalis genome (The present study used NCBI Annotation XP_012808358.2 to identify KCNH6). […] GRPs were dissected post fixation and prior to dehydration to detect dandy. To detect putative gene expression in the prospective endoderm (mixer, vegT, kcnh6) gastrula stage embryos were bisected to facilitate better probe access. Briefly, whole mount in situ hybridization of digoxigenin-labeled antisense probes was performed overnight, the labelled embryos were then washed, incubated with anti-digoxigenin-AP Fab fragments (Roche 11093274910), and signal was detected using BM-purple (Roche 11442074001). Normal embryonic medium is 1/9× modified Ringer's (MR) containing 11 mM NaCl, 0.2 mM KCl, 0.2 mM CaCl2), 0.1 mM Mg2Cl and 0.55 mM HEPES. […] For extracellular K^+ manipulations, the KCl concentration in 1/9×MR was modified from 0.2 mM (normal) to 20 mM (high) or 0 mM (low). […] For rapamycin, the present study created a standard stock solution of 50 mg/ml in DMSO. The stock solution was diluted 1:2500 in the appropriate embryonic media (final 20 μg/ml). […] In experiments where embryos were evaluated for phenotypes and scored (gastrulation, left-right patterning, in situ hybridizations) the present study carried out three to five biological replicates and Fisher's exact test to evaluate statistical significance. The animal cap experiment was performed twice with a total score of four to eight animal caps per experiment. […] For whole cell electrophysiological recordings, three to five embryos (two cells each) were examined for their membrane potential and statistical significance was tested by student's t-test. Graphs were designed using GraphPad Prism software. Models were created with BioRender.com.

hESCs = test: hESC pluripotency marker immunofluorescence; assay type: cell-based, human; settings: hESCs in MEF-CM, rapamycin 100 nM, by 5 days
Procedure: hESCs were grown in mTeSR1 ([…] Technologies) in tissue culture dishes coated with Matrigel (Corning; 1:200 in DMEM/F12) and kept at 37° C., 5% CO2. The cell lines used were ESI017 (ESIBIO) and H9.
Cells were dissociated with accutase and seeded onto 8 well imaging slides (ibidi 80826) at a density of 4-6×10^4/cm^2. Cells were seeded and maintained in Rock-inhibitor Y27672 (MCE; 10 μM) to increase survival and the uniformity of response. Treatments with 1 mM BaCl2 or 10 or 25 nM Ergtoxin or 100 nM rapamycin were initiated 4 hours after seeding. Differentiation was initiated 24 hours after seeding where indicated. To initiate differentiation, the media was replenished with/without BaCl2 or Ergtoxin and treated with the indicated growth factors or small molecules. Cells were incubated for the indicated times without media change before fixation.
Cells were fixed for 30 min in 4% paraformaldehyde, rinsed twice with DPBS (without Ca^2+ and Mg^2+, denoted DPBS^−/−), and blocked for 30 min at room temperature. […]
Images were acquired using a 20×, NA 0.75 objective on an Olympus IX83 inverted epifluorescence microscope or an Olympus/Andor spinning disk confocal microscope. […] This segmentation was cleaned (to remove debris and to separate merged cells) and mean nuclear protein intensities as well as standard errors were quantified using a custom MATLAB code. […]

SMILES | abnormal maintenance of pou5f3.3 and ventx1.2 (Xenopus embryos; kcnh6 depleted late gastrula embryos incubated in nifedipine) | expression of ectodermal marker ectodermin (Xenopus embryos; depolarizing conditions (kcnh6 depletion or high K^+), rapamycin 20 μg/ml) | expression of pou5f3.3 and ventx1.2 in the animal pole (Xenopus embryos; kcnh6 CR and high K^+ treated embryos, rapamycin 20 μg/ml vs vehicle) | pluripotency markers (hESCs)
COC(=O)C1=C(C)NC(C)=C(C(=O)OC)C1c1ccccc1[N+](=O)[O-] [nifedipine] | abolished |  |  | 
CO[C@H]1C[C@@H]2CC[C@@H](C)[C@@](O)(O2)C(=O)C(=O)N2CCCC[C@H]2C(=O)O[C@H]([C@H](C)C[C@@H]2CC[C@@H](O)[C@H](OC)C2)CC(=O)[C@H](C)/C=C(\C)[C@@H](O)[C@@H](OC)C(=O)[C@H](C)C[C@H](C)/C=C/C=C/C=C/1C [rapamycin] |  | recovered | dramatically lowered | reduction of pluripotency markers in a dose dependent manner with near complete loss
